This is an account of results in publication PMC3114758.

Chains of the proteins cited; added tags and fusions are not shown.
UniProt Q96BT3: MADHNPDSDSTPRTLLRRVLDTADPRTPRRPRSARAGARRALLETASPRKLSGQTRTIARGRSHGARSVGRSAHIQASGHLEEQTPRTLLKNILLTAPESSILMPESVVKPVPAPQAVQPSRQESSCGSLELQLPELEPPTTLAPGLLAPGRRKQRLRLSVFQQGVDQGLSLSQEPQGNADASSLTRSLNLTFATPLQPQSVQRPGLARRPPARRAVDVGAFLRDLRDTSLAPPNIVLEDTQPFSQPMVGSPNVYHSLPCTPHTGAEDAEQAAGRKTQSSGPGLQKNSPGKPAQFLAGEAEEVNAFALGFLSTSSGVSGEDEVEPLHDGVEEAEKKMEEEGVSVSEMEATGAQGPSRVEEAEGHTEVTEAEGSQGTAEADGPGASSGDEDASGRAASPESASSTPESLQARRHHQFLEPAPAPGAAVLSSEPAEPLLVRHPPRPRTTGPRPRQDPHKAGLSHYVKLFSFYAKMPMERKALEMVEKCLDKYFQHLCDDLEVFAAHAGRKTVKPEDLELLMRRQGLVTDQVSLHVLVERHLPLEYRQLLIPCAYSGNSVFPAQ

For this assay, the target named is CENP-T tagged with a fluorescent protein (human) (UniProt Q96BT3). Nature of the assay: FRET or BRET; FRET between CENP-T and CENP-W constructs tagged with fluorescent proteins, in human cells; unpublished observations. Background: In BRET a luciferase serves as donor, and the signal depends on an acceptor being close.

These are yes or no findings as the source states them, for the method shown. In cells and extracts the contact can be indirect. Some entries that bind do so weakly or less than the wild type.

On to “CENP-W tagged with a fluorescent protein (from UniProt Q5EE01-1 1-88)”, for which the binding entry is given as “binds”.
